Laboratory results published in publication PMC10787639 (Frontiers in Molecular Biosciences, 2023).
Results are given in words; binding and its absence hold for the method and conditions named. Binding can be weak; no strength is given.

Molecular target: Chaetomium thermophilum PCNA (proliferating cell nuclear antigen) (Chaetomium thermophilum)
Test: crystal structure; Ct PCNA (14 mg/mL) mixed with Ct Fen1 PIP peptide (8 mg/mL in DMSO); crystals in 2.4 M sodium malonate dibasic monohydrate pH 7.0; space group H32, one PCNA chain in the asymmetric unit; 1.95 A; both purified

B1: Ct Fen1 PIP peptide (15mer, residues 339-353) (peptide)
peptide: GAQQARIEGFFKVIP
With B1 the binding was “binds”.
